# Reference: PubChem BioAssay AID1259354 (Paczesny and Yang Labs, IUPUI and University of Michigan, 2018)
# By UniProt entry, the sequences of proteins in these tests, tags left out. Where a name states a change or a piece, a line headed by the entry shows the natural chain unless it says otherwise.
# UniProt Q01638: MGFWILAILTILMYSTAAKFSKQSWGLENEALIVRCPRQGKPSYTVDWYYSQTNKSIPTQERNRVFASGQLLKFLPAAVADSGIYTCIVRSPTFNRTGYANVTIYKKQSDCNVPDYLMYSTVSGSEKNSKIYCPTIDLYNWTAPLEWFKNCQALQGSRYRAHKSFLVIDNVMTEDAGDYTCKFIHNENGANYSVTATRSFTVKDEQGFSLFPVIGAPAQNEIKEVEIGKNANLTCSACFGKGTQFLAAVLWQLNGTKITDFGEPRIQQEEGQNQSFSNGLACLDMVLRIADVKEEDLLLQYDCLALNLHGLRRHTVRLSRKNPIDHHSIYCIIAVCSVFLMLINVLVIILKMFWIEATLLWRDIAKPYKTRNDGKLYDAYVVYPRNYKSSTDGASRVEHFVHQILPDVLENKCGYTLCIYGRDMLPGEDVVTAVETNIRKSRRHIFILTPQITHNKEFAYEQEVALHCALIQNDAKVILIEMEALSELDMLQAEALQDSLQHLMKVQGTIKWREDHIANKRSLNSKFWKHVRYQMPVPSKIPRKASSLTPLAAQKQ
# Several values for one entry are separate records, joined by “and”; a condition that tells them apart may be missing. Equal values may be shown once. Screen size: about 78,000 compounds; about 1,800 (2.3%) were called active. This list was built around the results that the source calls inconclusive (neither active nor inactive); the mix of calls is not that of the screen. Cut-off read from the data, not from the text of the source: active = inhibition above about 30%; inconclusive = mostly about 10% to 28%; inactive = weaker than that.
# Biological target: Interleukin-1 receptor-like 1 (Homo sapiens) (UniProt Q01638)
# Test: blocks human ST2 binding to IL-33, primary screen, biochemical, AlphaLISA (AID 1259354)
# Conditions: AlphaLISA ST2-Fc/biotin-IL-33 interaction, 1 h; at 17 µM, stronger effect = higher value
row,Compound,inhibition
1,CSc1cccc(NC(=O)C2Cc3ccccc3CN2S(C)(=O)=O)c1 (stereo not given),inactive
2,Cc1ccn2c(Nc3ccc4c(c3)OCCO4)c(-c3ccc(C)o3)nc2c1,inconclusive: 24%
3,COc1ccc(Cl)cc1C(=O)Nc1c(C)cccc1C(C)C,inconclusive: 11%
4,O=C(C1c2ccccc2C(=O)N2CCc3ccccc3C12)N1CCN(c2cccc(Cl)c2)CC1 (stereo not given),inconclusive: 10%
5,CCOc1ccc(-c2nc3s/c(=C\c4cccc(OC)c4OC)c(=O)n3n2)cc1,inactive
6,COc1cc(/C=C2\C(=O)N(c3ccc(Cl)c(C(=O)O)c3)N=C2C)cc(OC)c1OC,active: 56%
7,COc1cc(C2C(C#N)=C(N)OC3=C2C(=O)CC(c2ccccc2)C3)ccc1OCc1ccccc1 (stereo not given),active: 37%
8,Cc1cc(C)c2ccc(NN)nc2c1O,active: 34%
9,COc1ccccc1Oc1ncccc1CNCc1ccc2c(c1)CCO2,inactive
10,CCCn1cnc2sc(C(=O)Oc3ccccc3)c(C)c2c1=O,inconclusive: 15%
11,O=C1N=C(N2CCOCC2)S/C1=C/c1ccc(F)cc1,inactive
12,CCOC(=O)C1=C(N)OC2=C(C(=O)CC(c3ccccc3)C2)C1c1ccc(C)cc1 (stereo not given),inactive
13,C[C@@H]1C(=O)O[C@H]2[C@H]1CC[C@@]1(C)Cc3sc(NC(=O)COCC(=O)O)nc3[C@@H](C)[C@H]21,inconclusive: 23%
14,O=C(c1ccc([N+](=O)[O-])cc1)N1CCSC1c1ccccc1 (stereo not given),inconclusive: 10%
15,CC(C)c1cc(C(=O)N2CCCC3(CC2)CN(C)C(=O)O3)no1 (stereo not given),inconclusive: 13%
16,COc1cc(/C=C2/C(=O)N(c3ccc(Cl)c(Cl)c3)N=C2C)ccc1OCC(=O)O,inconclusive: 18%
17,O=C(NC[C@H]1O[C@@H](CO)[C@@H](O)[C@H]1N1CCN(c2cccc(C(F)(F)F)c2)CC1)N1CCOCC1,inconclusive: 10%
18,COCC(=O)NC[C@H]1O[C@@H](CO)[C@@H](O)[C@H]1N1CCCC1,inactive
19,CC1=C(C(=O)Nc2ccccn2)C(c2ccc(N(C)C)cc2)C2=C(CC(C)(C)CC2=O)N1 (stereo not given),inactive
20,CCCc1c(OCCCOc2ccc(OCC(=O)O)cc2)ccc(C(C)=O)c1O,inconclusive: 10%
21,Cc1ccn2c(C(=O)NC3CC(=O)N(Cc4cccc(F)c4)C3)nnc2n1 (stereo not given),inconclusive: 16%
22,CC(C)C(C(=O)O)N1C(=O)C2C3C=CC(C4CC34)C2C1=O (stereo not given),inactive
23,CCNc1ncc(-c2nccn2CCN(C)C)cn1,inconclusive: 16%
24,COC(=O)C1C(=O)NC(SCc2ccccc2)=C(C#N)C1c1ccc(Cl)cc1 (stereo not given),inconclusive: 15%

row,Compound,inhibition
1,CCN(CC)C1CCN(Cc2cccc(C(=O)Nc3nccn3C)c2)C1 (stereo not given),inconclusive: 16%
2,CN1CC(=O)N2CCN(Cc3ccc(C#CCO)s3)CC2C1=O (stereo not given),inconclusive: 22%
3,COc1cc(S(=O)(=O)Nc2cccc(C)c2)ccc1NC(=O)c1ccncc1,inconclusive: 22%
4,O=C(c1ccc2c3c(cccc13)CC2)C1CCCN(C(=O)CCc2cnccn2)C1 (stereo not given),inconclusive: 12%
5,Cc1ccc(CCC(=O)Nc2ccccc2)o1,inconclusive: 19%
6,CCC(NS(=O)(=O)c1ccc(Cl)cc1)C(=O)O (stereo not given),inactive
7,CCCCNS(=O)(=O)c1ccc(OCC)c2ncccc12,inconclusive: 12%
8,CCc1nc(C)c(C(=O)Nc2cc(C(=O)N(CC)CC)ccc2Cl)o1,inconclusive: 20%
9,O=C(NCCc1nc2cccnc2n1-c1ccccc1)Nc1ccccc1,inconclusive: 17%
10,OCC1(CNC2CCC3(CCNCC3)CC2)CCOCC1,inactive
11,O=C(Nc1ccc(-c2nc3ccccc3[nH]2)cc1)c1ccccc1Br,inconclusive: 19%
12,CC(C)c1ccc(S(=O)(=O)NCC(=O)O)cc1,inactive
13,O=C(Nc1ccc(Br)cc1)c1cc(-c2ccc(Br)cc2)on1,inconclusive: 13%
14,Cc1cc(C)n(C)c(=O)c1C(=O)NCc1cccnc1Oc1ccccc1F,inconclusive: 10%
15,COc1cc(CN2CCN(c3ccc(F)cc3)CC2)c([N+](=O)[O-])cc1OC,inconclusive: 15%
16,Cc1cc2c(cc1C)C(c1cc(F)ccc1F)CC(=O)N2 (stereo not given),inconclusive: 13%
17,COCCCNC(=O)c1ccc([N+](=O)[O-])o1,inactive
18,COc1ccc(-n2nc3c(c2NC(=O)c2cc(OC)c(OC)c(OC)c2)CSC3)cc1,inconclusive: 10%
19,CCCCOc1ccc(C2=N/C(=C\c3ccc([N+](=O)[O-])cc3)C(=O)O2)cc1,inactive
20,COc1ccc(-c2c(C#N)c(N)nc3c2CCCCC3)cc1OC,inconclusive: 18%
21,O=C(CSc1nc(-c2ccc(F)cc2)[nH]c1-c1ccccc1)Nc1nccs1,inactive
22,CC12CN3CC(C)(CN(C1)C3c1ccc(Br)cc1)C2O (stereo not given),inconclusive: 13%
23,Nc1ncc(C(=O)N2CCOC(CC3CCCCC3)C2)c(-c2ccccc2)n1 (stereo not given),inconclusive: 12%
24,COc1ccc(N2CCN(c3ncnc4c3cnn4-c3ccc(C)cc3C)CC2)cc1,inconclusive: 20%

row,Compound,inhibition
1,CCN(Cc1cc(C)[nH]n1)CC1CCCO1 (stereo not given),inconclusive: 21%
2,CCOc1ccc(N2C(=O)S/C(=C\c3ccc(C)o3)C2=O)cc1,active: 34%
3,Cc1ncc(-c2c(-c3ccccc3)ncn2CCc2cccs2)[nH]1,inconclusive: 22%
4,Cc1nc(C(=O)NC(c2ccccc2)c2nnc(N)s2)cs1 (stereo not given),inconclusive: 11%
5,CC1CN(C(=O)c2ccccc2Cl)CCN1C(=O)c1ccccc1Cl (stereo not given),inactive
6,COc1ccc2cc3cc(C(=O)Nc4cc(C)ccc4OC)oc3nc2c1,inconclusive: 24%
7,COc1ccc(-c2ncnn2-c2sc3c(c2C#N)CCCC3)cc1,active: 47% and active: 44%
8,O=C(Nc1cccc(Cl)c1)Nc1cccc2cccnc12,inconclusive: 10%
9,CCN1CCN(C2CC(=O)N(c3ccc(Br)cc3Br)C2=O)CC1 (stereo not given),inactive
10,O=C(c1ccc(CS(=O)(=O)c2ccc(Br)cc2)o1)N1CCCCC1,inactive
11,c1ccc2c(-c3cc(NC4CCNCC4)nc4[nH]ccc34)n[nH]c2c1,active: 46%
12,CCCN(CCC)C(=O)Cn1c(=O)n(-c2cc(C)cc(C)c2)c(=O)c2sccc21,inconclusive: 16%
13,CC1(C)CC(=O)c2c(nc3ccccc3c2NCc2ccccc2)C1,inconclusive: 10%
14,Cn1cc(CCC(=O)N2CCCC(CCc3ccccc3C(F)(F)F)C2)cn1 (stereo not given),inconclusive: 14%
15,Cc1ncc(Cc2ccccc2)c(C2CCN(C(=O)/C=C/c3cccs3)CC2)n1,inconclusive: 19%
16,CN1CCCN(Cc2ccc([N+](=O)[O-])cc2)CC1,inconclusive: 25%
17,CSC(C)(C)CC(C)NC1CCN(Cc2cccnc2)CC1 (stereo not given),inconclusive: 17%
18,COc1cc(C(=O)NCCSc2c[nH]c3ccccc23)cc(OC)c1OC,inconclusive: 18%
19,c1ccc(OCc2noc(CN3CCC(c4ccncc4)CC3)n2)cc1,inactive
20,COc1ccccc1CCC(=O)N1CCN(C)C2(CCN(C)CC2)C1,inactive
21,O=S(=O)(c1cccc2c(Cl)cccc12)N1CCCNCC1,inconclusive: 14%
22,CC(c1nc2c(s1)CCCC2)N1Cc2ncccc2C1=O (stereo not given),inactive
23,COC(=O)[C@@H]1CCCN1Cc1ccc2c(c1)CN(Cc1cc(OC)cc(OC)c1)CCO2,inactive
24,Cc1ccc(C2C3=C(CCCC3=O)Nc3nc(SCC(C)C)[nH]c(=O)c32)cc1 (stereo not given),inconclusive: 19% and inconclusive: 16%

row,Compound,inhibition
1,CCCCN(C)S(=O)(=O)c1ccc2c(c1)c(=O)n(C)c(=O)n2C,inactive
2,Nc1nc(Nc2ccccc2)nc2c1ncn2[C@@H]1O[C@H](CO)[C@@H](O)[C@H]1O,inconclusive: 15%
3,CCOc1cc(/C=C2\C(=O)NN(c3ccc(C)cc3)C2=O)cc(I)c1O,inconclusive: 17%
4,CCCOC(=O)C1=C(C)NC2=C(C(=O)C(C(=O)OC)C(C)C2)C1c1ccc(OCCC)cc1 (stereo not given),inactive
5,COc1ccc(-n2ncc3c(Nc4cc(OC)ccc4OC)ncnc32)cc1,inactive
6,COc1ccc(C(=O)Nc2ccc(-c3nc4ncccc4o3)cc2)cc1OC,inconclusive: 21%
7,COCC(=O)N1CCN(C(=O)Nc2ccccc2)C[C@H]1C(=O)N[C@@H](CC1CCCCC1)C(N)=O,inconclusive: 20%
8,Cc1nc2c(c(NCC3(N4CCOCC4)CCCCCC3)n1)CCNC2,inactive
9,Cn1ccnc1-c1nccn1C1CCCC1,inactive
10,CC(C)C(NS(=O)(=O)c1cccs1)C(=O)Nc1ccc2c(c1)OCCO2 (stereo not given),inconclusive: 15% and inconclusive: 11%
11,CCN=C1SC(CC(=O)Nc2cccc(C(F)(F)F)c2)C(=O)N1CC (stereo not given),inconclusive: 14%
12,CS(=O)(=O)NCCC1CN(Cc2cc3ccccc3[nH]2)CCO1 (stereo not given),inconclusive: 20%
13,O=C(Nc1nnc(-c2ccc(Cl)s2)o1)c1ccc(S(=O)(=O)N2CCOCC2)cc1,inactive
14,O=C(CCSc1ccccc1)Nc1cccc(F)c1,inconclusive: 10%
15,COc1ccc(CC2CN(S(=O)(=O)c3cccs3)CCO2)cc1 (stereo not given),inactive
16,CCOC(=O)c1c(C)oc2cc(Br)c(OCc3ccccc3)cc12,inactive
17,O=C(NCCN1CCOCC1)c1ccc2c(c1)ncn2C1CCCCCC1,inactive
18,Cc1ccccc1-c1cc(O)c2c(c1)CN(c1nc(C(N)=O)cs1)CCO2,inconclusive: 20%
19,COc1ccc(C(Nc2cccc(C)n2)c2ccc3cccnc3c2O)cc1 (stereo not given),inconclusive: 22%
20,Cc1ccc2c(Cl)c(C(=O)Nc3ccncc3)sc2c1,inactive
21,C=CC[C@@H]1CC=C[C@@H](C)N1C(=O)CCc1c(C)nn(C)c1C,inactive
22,CCCc1nnc([C@H]2CCN(C3CCN(C(C)=O)CC3)C2)o1,inactive
23,CN(CCc1ccccc1)C1CCCN(C(=O)c2ccccc2Cl)C1 (stereo not given),inactive
